Results are given in words; binding and its absence hold for the method and conditions named. For some assays here: In cells and extracts the contact can be indirect. Some results given as binding are weak or reduced against the parent protein; the word gives no strength.
What was measured:
[1] = molecular target: recombinant full-length NLRP3 tagged with GST (UniProt Q96P20); test: BLI; Octet RED96, 25°C, 1,000 rpm; GST-NLRP3 (7.2 nM) immobilized on anti-GST biosensors; His-PLK1 as analyte at 500–15.125 nM, 180 s association and 180 s dissociation; 100 mM HEPES, 100 mM NaCl, pH 7.4, 0.01% BSA, 0.01% Tween-20; both purified
[2] = molecular target: T1, NLR family pyrin domain-containing 3 (NLRP3), endogenous murine (mouse (endogenous in BMDMs and iBMDMs)), Q8R4B8; test: proximity ligation; in situ PLA (Duolink) on fixed BMDMs with antibodies against PLK1 and NLRP3; cells primed (100 ng/mL LPS, 5 hours) and activated (5 mM ATP, 30 minutes), with or without 3 μM cyclapolin 9 at the activation stage; settings: remark: other sources report otherwise
T1 chain: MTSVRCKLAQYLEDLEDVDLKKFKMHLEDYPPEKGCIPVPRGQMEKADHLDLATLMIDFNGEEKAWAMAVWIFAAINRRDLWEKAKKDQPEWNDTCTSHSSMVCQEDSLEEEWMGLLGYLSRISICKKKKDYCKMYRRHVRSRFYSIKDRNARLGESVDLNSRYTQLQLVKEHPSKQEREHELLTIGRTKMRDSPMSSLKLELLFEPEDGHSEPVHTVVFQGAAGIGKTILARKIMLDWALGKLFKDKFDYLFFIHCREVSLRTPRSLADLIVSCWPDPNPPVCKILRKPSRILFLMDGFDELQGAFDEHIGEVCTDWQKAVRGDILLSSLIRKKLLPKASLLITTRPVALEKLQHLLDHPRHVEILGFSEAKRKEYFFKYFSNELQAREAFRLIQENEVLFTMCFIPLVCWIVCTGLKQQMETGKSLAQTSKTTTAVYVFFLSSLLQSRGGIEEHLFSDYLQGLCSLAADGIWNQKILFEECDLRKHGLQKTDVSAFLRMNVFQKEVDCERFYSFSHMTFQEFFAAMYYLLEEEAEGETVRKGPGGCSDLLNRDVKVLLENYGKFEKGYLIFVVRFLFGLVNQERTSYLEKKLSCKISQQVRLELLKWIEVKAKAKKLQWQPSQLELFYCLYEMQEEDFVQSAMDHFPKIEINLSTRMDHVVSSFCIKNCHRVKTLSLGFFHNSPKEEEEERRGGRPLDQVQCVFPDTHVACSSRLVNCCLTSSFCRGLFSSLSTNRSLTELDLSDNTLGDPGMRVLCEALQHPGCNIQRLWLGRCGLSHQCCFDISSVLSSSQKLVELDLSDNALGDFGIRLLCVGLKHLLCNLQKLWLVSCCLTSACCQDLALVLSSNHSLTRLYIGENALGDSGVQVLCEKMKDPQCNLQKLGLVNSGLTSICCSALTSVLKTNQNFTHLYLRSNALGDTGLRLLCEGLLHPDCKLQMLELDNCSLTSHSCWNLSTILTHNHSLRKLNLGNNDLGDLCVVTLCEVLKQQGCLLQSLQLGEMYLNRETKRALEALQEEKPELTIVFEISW

Protein sequences, listed by entry. Tags and fused reporters are not part of them.
UniProt Q96P20: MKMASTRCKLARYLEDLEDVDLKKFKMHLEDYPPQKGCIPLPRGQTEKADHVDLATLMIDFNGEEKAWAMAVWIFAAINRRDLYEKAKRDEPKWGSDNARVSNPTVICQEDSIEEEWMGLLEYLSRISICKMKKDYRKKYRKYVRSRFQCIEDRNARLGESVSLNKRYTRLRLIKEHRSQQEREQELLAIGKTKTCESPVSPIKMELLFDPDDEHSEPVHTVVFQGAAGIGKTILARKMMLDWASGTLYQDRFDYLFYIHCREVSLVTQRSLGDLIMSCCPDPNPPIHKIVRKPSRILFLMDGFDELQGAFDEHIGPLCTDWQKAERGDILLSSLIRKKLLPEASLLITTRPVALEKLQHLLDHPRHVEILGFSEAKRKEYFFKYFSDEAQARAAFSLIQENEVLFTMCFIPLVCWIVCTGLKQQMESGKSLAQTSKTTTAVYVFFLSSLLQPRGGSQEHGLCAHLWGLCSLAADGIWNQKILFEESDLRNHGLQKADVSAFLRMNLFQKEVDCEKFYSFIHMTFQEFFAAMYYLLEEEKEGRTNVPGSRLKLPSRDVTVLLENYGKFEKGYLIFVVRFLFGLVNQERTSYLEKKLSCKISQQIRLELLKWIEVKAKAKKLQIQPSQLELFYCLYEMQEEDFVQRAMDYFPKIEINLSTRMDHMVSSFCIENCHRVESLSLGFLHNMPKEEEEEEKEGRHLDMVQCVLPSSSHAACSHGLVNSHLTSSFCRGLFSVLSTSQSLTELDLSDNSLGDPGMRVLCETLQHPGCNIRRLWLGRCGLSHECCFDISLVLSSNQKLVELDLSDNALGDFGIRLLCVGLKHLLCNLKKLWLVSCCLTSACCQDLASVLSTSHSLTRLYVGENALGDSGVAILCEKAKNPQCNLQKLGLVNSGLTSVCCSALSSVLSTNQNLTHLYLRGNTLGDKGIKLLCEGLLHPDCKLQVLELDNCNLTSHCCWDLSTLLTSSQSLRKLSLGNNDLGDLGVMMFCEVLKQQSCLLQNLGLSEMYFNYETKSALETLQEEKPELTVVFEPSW
UniProt P53350: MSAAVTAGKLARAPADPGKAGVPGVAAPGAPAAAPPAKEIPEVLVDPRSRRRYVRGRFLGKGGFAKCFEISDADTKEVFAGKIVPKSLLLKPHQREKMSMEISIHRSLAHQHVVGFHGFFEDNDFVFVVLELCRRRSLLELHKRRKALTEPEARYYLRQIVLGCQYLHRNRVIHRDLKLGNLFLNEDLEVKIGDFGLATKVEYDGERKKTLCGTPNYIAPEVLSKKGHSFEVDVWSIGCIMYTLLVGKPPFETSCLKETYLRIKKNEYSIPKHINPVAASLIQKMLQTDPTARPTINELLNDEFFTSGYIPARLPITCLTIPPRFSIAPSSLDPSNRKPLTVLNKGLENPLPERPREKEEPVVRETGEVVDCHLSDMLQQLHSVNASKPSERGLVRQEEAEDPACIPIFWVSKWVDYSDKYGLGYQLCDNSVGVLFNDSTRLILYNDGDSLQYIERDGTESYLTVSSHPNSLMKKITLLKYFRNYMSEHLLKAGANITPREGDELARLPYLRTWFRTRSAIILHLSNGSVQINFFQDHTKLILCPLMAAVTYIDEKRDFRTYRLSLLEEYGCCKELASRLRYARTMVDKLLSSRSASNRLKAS

Molecule: recombinant full-length PLK1 (tagged with His) (from UniProt P53350 1-603)
- binding [1]: binds

B1: Polo-like kinase 1 (PLK1), endogenous murine, Q07832 1-603 (protein)
chain: MNAAAKAGKLARAPADLGKGGVPGDAVPGAPVAAPLAKEIPEVLVDPRSRRQYVRGRFLGKGGFAKCFEISDADTKEVFAGKIVPKSLLLKPHQKEKMSMEISIHRSLAHQHVVGFHDFFEDSDFVFVVLELCRRRSLLELHKRRKALTEPEARYYLRQIVLGCQYLHRNQVIHRDLKLGNLFLNEDLEVKIGDFGLATKVEYEGERKKTLCGTPNYIAPEVLSKKGHSFEVDVWSIGCIMYTLLVGKPPFETSCLKETYLRIKKNEYSIPKHINPVAASLIQKMLQTDPTARPTIHELLNDEFFTSGYIPARLPITCLTIPPRFSIAPSSLDPSSRKPLKVLNKGVENPLPDRPREKEEPVVRETNEAIECHLSDLLQQLTSVNASKPSERGLVRQEEAEDPACIPIFWVSKWVDYSDKYGLGYQLCDNSVGVLFNDSTRLILYNDGDSLQYIERDGTESYLTVSSHPNSLMKKITLLNYFRNYMSEHLLKAGANITPREGDELARLPYLRTWFRTRSAIILHLSNGTVQINFFQDHTKLILCPLMAAVTYINEKRDFQTYRLSLLEEYGCCKELASRLRYARTMVDKLLSSRSASNRLKAS
- binding [2]: binds

Source: publication PMC10617773
